Measured values published in PubChem BioAssay AID504327 (National Center for Advancing Translational Sciences (NCATS), 2011).
Out of some 390,000 compounds screened, about 820 (0.21%) were called active. The shares of active, inactive and inconclusive entries below differ from those in the screen. Calls come from the whole dose curve; as a rule, active = well fitted inhibition curve with a large enough effect; inconclusive = small, poorly fitted or top-dose-only effect, or another doubt; inactive = no such curve, though single readings can be large or run the other way. Potencies of inconclusive entries are doubtful fits and often do not repeat.

Amino acid sequences for entries named in this document (tags omitted).
UniProt Q92830, whole entry, looked up: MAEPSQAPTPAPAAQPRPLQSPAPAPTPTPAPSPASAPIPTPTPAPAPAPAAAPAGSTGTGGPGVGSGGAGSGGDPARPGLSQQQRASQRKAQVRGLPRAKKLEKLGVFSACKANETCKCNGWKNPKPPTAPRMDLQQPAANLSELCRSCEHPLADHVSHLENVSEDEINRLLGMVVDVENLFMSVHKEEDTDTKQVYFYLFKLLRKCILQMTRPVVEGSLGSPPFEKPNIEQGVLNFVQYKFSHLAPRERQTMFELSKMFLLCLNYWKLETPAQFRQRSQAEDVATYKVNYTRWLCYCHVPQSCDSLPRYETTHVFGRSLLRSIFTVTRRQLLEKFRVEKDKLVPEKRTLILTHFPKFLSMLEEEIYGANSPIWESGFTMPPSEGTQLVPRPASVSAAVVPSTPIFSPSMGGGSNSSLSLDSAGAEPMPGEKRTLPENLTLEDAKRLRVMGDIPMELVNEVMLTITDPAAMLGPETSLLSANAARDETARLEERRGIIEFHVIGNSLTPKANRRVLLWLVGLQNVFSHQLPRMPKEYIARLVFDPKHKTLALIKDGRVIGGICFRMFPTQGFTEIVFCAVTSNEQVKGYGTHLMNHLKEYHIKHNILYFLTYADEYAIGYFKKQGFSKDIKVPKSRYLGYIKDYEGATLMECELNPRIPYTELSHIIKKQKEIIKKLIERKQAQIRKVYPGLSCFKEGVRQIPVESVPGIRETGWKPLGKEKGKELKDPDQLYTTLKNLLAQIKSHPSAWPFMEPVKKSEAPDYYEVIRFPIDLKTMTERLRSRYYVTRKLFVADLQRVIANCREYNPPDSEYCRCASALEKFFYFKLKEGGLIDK

Target: Histone acetyltransferase KAT2A (Homo sapiens) (UniProt Q92830)
Experiment: qHTS Assay for Inhibitors of GCN5L2
Settings: GCN5L2 HAT assay, ThioGlo1 CoA-SH fluorescence; activity change, negative = inhibition: at 58.9 µM (top of the series) unless noted
Method in brief: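 Compounds, pin-transferred from DMSO stocks, meet 20nM GCN5L2 for 15 min before the reaction begins with H3(1-25) peptide (75uM) and acetyl-CoA (70uM). Thiol-reactive ThioGlo1 reports CoA release over 20 min at room temperature.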
% is set by controls: 0 for no effect and ±100 for the full control effect; potency is the fitted concentration of half-maximal effect.

Row | Compound | activity change, negative = inhibition | Potency
1 | CCN1CCN(Cc2ccc(NC(=O)c3cc(NC(=O)c4cc5cccc(OC)c5o4)cc(OC)c3)cc2C(F)(F)F)CC1 | inactive: -13% | 
2 | CNC(=O)c1ccccc1NC(=O)C1CC(=O)N(C(C)C)C1 (stereo not drawn) |  | inconclusive: 39.8 µM [inhibitor, single point]
3 | COc1ccc(CCNC(=O)c2ccc3nc(-c4ccco4)c(-c4ccco4)nc3c2)cc1OC |  | inconclusive: 31.6 µM [inhibitor, single point]
4 | CNc1cc(CS(=O)c2ccccc2)nc(-c2ccccc2)n1 (stereo not drawn) |  | inconclusive: 0.794 µM [inhibitor, single point]
5 | CCC(C)n1c(SCC(=O)NC(=O)Nc2ccc3c(c2)OCCO3)nc2ccccc2c1=O (stereo not drawn) |  | inconclusive: 17.8 µM [inhibitor, single point]
6 | Cc1cccc(CNC(=O)C2CCN(S(=O)(=O)c3ccc4c(c3)CCCN4C(=O)C3CCC3)CC2)c1 | inactive: -2.8% | 
7 | N#C/C(=C(/O)CCl)c1nc2c(s1)CCc1ccccc1-2 | inactive: -13.6% | 
8 | Cc1ccccc1C(=O)N1CCC(C(=O)NCc2ccc(Cl)cc2)CC1 |  | inconclusive: 15.8 µM [inhibitor, partial curve, poor fit]
9 | Cc1cc(C(=O)Nc2ccc3c(c2)OCCO3)co1 |  | inconclusive: 0.562 µM [inhibitor, single point]
10 | CCc1nn(Cc2c(C)cc(C)cc2C)c(=O)c2cc3cc(C)ccc3n12 | inactive: -3.74% | 
11 | CCC(C)(C(=O)Nc1ccc(OC)cc1)N(C)C(=O)Cn1nnnc1N (stereo not drawn) | inactive: -1.7% | 
12 | Cc1ccc(C2C=C(c3ccc(Cl)cc3)Nc3nc(NC(=O)c4ccco4)nn32)cc1 (stereo not drawn) | inactive: 1.34% | 
13 | CSc1nc2sc3c(c2c(=O)[nH]1)CC(C)(C)OC3 |  | inconclusive: 7.08 µM [inhibitor, single point]
14 | CCCc1cc(=O)n2[nH]c(NCc3c(Cl)cccc3Cl)nc2n1 |  | inconclusive: 0.562 µM [inhibitor, partial curve, poor fit]
15 | Cc1ccc(Cl)cc1NC(=O)Cn1ncc2c(C)n(Cc3ccccc3F)c(C)c2c1=O |  | inconclusive: 20 µM [inhibitor, partial curve]
16 | O=C(Nc1cc(C(=O)Nc2ccccc2C(=O)O)cc(C(=O)Nc2ccccc2C(=O)O)c1)c1ccccc1 |  | inconclusive: 1.26 µM [inhibitor, full curve, poor fit]
17 | COc1cc(/C=C(/NC(=O)c2ccccc2)C(=O)Nc2cccc(O)c2)c([N+](=O)[O-])cc1OC |  | inconclusive: 8.91 µM [inhibitor, single point]
18 | O=C(CSc1n[nH]c(-c2ccccc2O)n1)N1CCCc2ccccc21 | inactive: -14.6% | 
19 | Cn1c(=O)c2c(SCC(=O)Nc3ccc(F)cc3F)nc(C3CCCC3)nc2n(C)c1=O |  | inconclusive: 39.8 µM [inhibitor, single point]
20 | CCOC(=O)/C(C#N)=C\c1cc(C)n(-c2ccccc2)c1C | inactive: -1.53% | 
21 | C=CCNC(=S)Nc1cc(C)ccn1 | inactive: -1.05% | 
22 | CCCN1CCN(CC(=O)Nc2cc(OCC)ccc2OCC)CC1 |  | inconclusive: 8.91 µM [inhibitor, single point]
23 | COc1ccc(-c2nc3cnc(N4CCNCC4)nc3n(CCC#N)c2=O)cc1 |  | inconclusive: 31.6 µM [inhibitor, single point]

Row | Compound | activity change, negative = inhibition | Potency
24 | COc1ccc(-c2csc(NC3OC(=O)c4c3ccc(OC)c4OC)n2)cc1OC (stereo not drawn) | inactive: -5.39% | 
25 | N#CCSc1nc2ccccc2c(=O)n1-c1ccccc1 |  | inconclusive: 31.6 µM [inhibitor, single point]
26 | CCOc1ncnc2c1oc1nc(CC(C)C)c3c(c12)CC(C)(C)OC3 |  | inconclusive: 39.8 µM [inhibitor, single point]
27 | Cc1ccc(NC(=O)c2cc(-c3ccco3)nc3ccccc23)cc1S(=O)(=O)N1CCOCC1 |  | inconclusive: 20 µM [inhibitor, partial curve]
28 | C=CCn1c(Sc2ncc([N+](=O)[O-])s2)n[nH]c1=O |  | inconclusive: 39.8 µM [inhibitor, partial curve]
29 | COC(=O)c1cn(C(=O)c2ccc(C)cc2)c2ccccc12 |  | inconclusive: 5.01 µM [inhibitor, single point]
30 | Nc1nonc1C(=O)N/N=C/c1ccc(-c2ccc(Cl)c(C(=O)O)c2)o1 |  | inconclusive: 39.8 µM [inhibitor, single point]
31 | CCN1CCN(CCCCSc2ccccc2)CC1 |  | inconclusive: 3.16 µM [inhibitor, full curve, poor fit]
32 | COC(=O)c1ccc(NC(=S)N2CCN(Cc3ccccc3OC)CC2)cc1 |  | inconclusive: 35.5 µM [inhibitor, single point]
33 | COc1ccc(-n2nc(C(=O)Nc3cccc(C)n3)c3c4ccccc4n(C)c3c2=O)cc1 | inactive: 0.961% | 
34 | CNC(=O)Nc1ccc(C2SCCS2)cc1 |  | inconclusive: 39.8 µM [inhibitor, single point]
35 | CCCNC(=O)c1c(N)n(-c2cc(OC)cc(OC)c2)c2nc3ccccc3nc12 |  | inconclusive: 28.2 µM [inhibitor, single point]
36 | COc1cc(SC)ccc1C(=O)Nc1ccon1 | inactive: -19.4% | 
37 | COc1cc(C(=O)N/N=C/c2coc3ccccc3c2=O)cc(OC)c1OC |  | inconclusive: 39.8 µM [inhibitor, single point]
38 | COc1ccc(-c2cc(C(F)(F)F)nc(N3CCN(Cc4ccccc4)CC3)n2)cc1OC |  | inconclusive: 15.8 µM [inhibitor, single point]
39 | Cc1ccc(S(=O)(=O)c2nc(-c3ccccc3)oc2N2CCC(C(N)=O)CC2)cc1 |  | inconclusive: 2.82 µM [inhibitor, partial curve]
40 | COc1cccc(CNC(=O)Cn2ncc3c4ccccc4n(C)c3c2=O)c1 | inactive: -5% | 
41 | Cc1ccc(NC(=O)NCCCN2CCCC2=O)c(C)c1 |  | inconclusive: 0.1 µM [inhibitor, full curve, poor fit]
42 | COc1cc(/C=N/NC(=O)c2ccc(Cn3cc([N+](=O)[O-])cn3)o2)cc(Br)c1O |  | inconclusive: 8.91 µM [inhibitor, single point]
43 | O=C(COc1ccc2cc(Br)ccc2c1)N1CCCC1 |  | inconclusive: 0.141 µM [inhibitor, full curve, poor fit]
44 | COc1ccccc1CNc1ncnc2ccc(-c3cccc(C#N)c3)cc12 | inactive: -9.29% | 
45 | CSCC[C@@H](C(=O)NCCCCCCCCCCC(=O)N1CCN(C(=O)OC(C)(C)C)CC1)n1cc(CCO)nn1 | inactive: -7.72% | 
46 | COc1cccc(NC(CNS(=O)(=O)c2ccc(C)cc2)c2ccccc2)c1 (stereo not drawn) | inactive: -12.7% | 

Reprinted at random: 4 entries already listed
Row | Compound | activity change, negative = inhibition | Potency
44 | COc1ccccc1CNc1ncnc2ccc(-c3cccc(C#N)c3)cc12 | inactive: -9.29% | 
15 | Cc1ccc(Cl)cc1NC(=O)Cn1ncc2c(C)n(Cc3ccccc3F)c(C)c2c1=O |  | inconclusive: 20 µM [inhibitor, partial curve]
34 | CNC(=O)Nc1ccc(C2SCCS2)cc1 |  | inconclusive: 39.8 µM [inhibitor, single point]
11 | CCC(C)(C(=O)Nc1ccc(OC)cc1)N(C)C(=O)Cn1nnnc1N (stereo not drawn) | inactive: -1.7% | 

More entries follow:

Row | Compound | activity change, negative = inhibition | Potency
47 | COC(=O)NC1CCS(=O)(=O)C1 (stereo not drawn) | inactive: 0.789% | 
48 | Cc1nn(-c2ccccc2)c(C)c1C(=O)OCc1ccc(C#N)cc1 | inactive: -1.81% | 
49 | O=C(c1ccc(S(=O)(=O)N2CCCCCC2)cc1)N(c1ccccn1)C1CCCCC1 | inactive: -3.09% | 
50 | Cc1ccc(CNC(=O)c2ccc(-c3nc(CN4CCc5ccccc54)c(C)o3)cc2)cc1 | inactive: -14.4% | 
51 | COC(=O)C1=CN(C(C)C)C=C(C(=O)OC)C1c1cccc(OC)c1 |  | inconclusive: 39.8 µM [inhibitor, single point]
52 | Cc1cc(NC(=S)N(Cc2ccc(Br)cc2)Cc2ccc(C(=O)O)cc2)ccc1Cl |  | inconclusive: 39.8 µM [inhibitor, single point]
53 | Cc1nc2nc(C)c(CCC(=O)NCCCN3CCN(c4cccc(Cl)c4)CC3)c(C)n2n1 |  | inconclusive: 3.98 µM [inhibitor, full curve]
54 | CCC(=O)c1ccc(N2CCN(C(=O)Cc3ccccc3)CC2)c(F)c1 |  | inconclusive: 0.112 µM [inhibitor, full curve, poor fit]
55 | Cc1ccc2c(c1)N(C(=O)CCC(=O)NCCN1CCOCC1)CC(C)O2 (stereo not drawn) |  | inconclusive: 39.8 µM [inhibitor, single point]
56 | CC(NCc1ccccc1O)C12CC3CC(CC(C3)C1)C2 (stereo not drawn) |  | inconclusive: 3.98 µM [inhibitor, partial curve, poor fit]
57 | C/C(=N/NS(=O)(=O)c1ccc(C)cc1)c1c[nH]c2ccccc12 |  | inconclusive: 0.141 µM [inhibitor, full curve, poor fit]
58 | Cc1ccccc1C(=O)Nc1nnc(SCc2cc(=O)c3c(C)ccc(C)c3[nH]2)s1 |  | inconclusive: 25.1 µM [inhibitor, partial curve, poor fit]
59 | CC(C)n1c(=S)[nH]c2c1c(=O)[nH]c(=O)n2C |  | inconclusive: 39.8 µM [inhibitor, single point]
60 | CC1(C)OC(=O)C(=Cc2ccc(-c3ccc(S(N)(=O)=O)cc3)o2)C(=O)O1 |  | inconclusive: 28.2 µM [inhibitor, partial curve, poor fit]
61 | CN1CCN(S(=O)(=O)c2cccc(C(=O)Nc3cc(C(F)(F)F)ccc3N3CCCC3)c2)CC1 |  | inconclusive: 0.126 µM [inhibitor, full curve, poor fit]
62 | CN1C(=S)SC(/[N+]([O-])=C\c2ccccc2)C1(C)C (stereo not drawn) | inactive: -9.36% | 
63 | CCCN1CCN(C(=O)C2CCN(S(=O)(=O)c3ccc4c(c3)NC(=O)C(C)S4)CC2)CC1 (stereo not drawn) |  | inconclusive: 1.12 µM [inhibitor, full curve, poor fit]
64 | O=C1CSC(c2cccc(F)c2)N1c1ccc(O)cc1 (stereo not drawn) |  | inconclusive: 8.91 µM [inhibitor, single point]
65 | Cc1ccc(-n2sc3ccccc3c2=O)cc1S(=O)(=O)N1CCCCC1 |  | active: 2.24 µM
66 | O=C(N/N=C/c1cc(Br)c(O)c(Br)c1)c1cc2c(ccc3ccccc32)o1 |  | inconclusive: 39.8 µM [inhibitor, single point]
67 | COc1cc(C(=O)NCCOc2cc(C)ccc2C(C)C)cc(OC)c1OC | inactive: -29.7% | 
68 | CN(C)c1ccc(C(=C2C=CC(=[N+](C)C)C=C2)c2c(O)c(S(=O)(=O)[O-])cc3cc(S(=O)(=O)O)ccc23)cc1 |  | inconclusive: 28.2 µM [inhibitor, single point]
